Laboratory results as given in patent publication US7851640B2, “Catalytic enantioselective synthesis of flavanones and chromanones” (Northwestern University, priority 2008, dated 2010).
Some entries share one result that the patent states for a list of compounds. At least one compound was matched to its structure with a doubt left.

Legend:
MMP-2 = MMP-2 transcript levels by qRT-PCR in abyssinone-treated PC3-M cells; format: cell-based, human; settings: 3 μM (non-toxic concentration), 3 days
PC3-M cells = test: MTT assay of metastatic PCa (PC3-M) cell growth / cytotoxicity; format: cell-based, human; settings: 25 μM, 3 days, DMSO control

SMILES: COc1c(CC=C(C)C)cc([C@H]2CC(=O)c3ccc(O)cc3O2)cc1CC=C(C)C [(R)-21d]
- MMP-2 expression, of control levels (MMP-2): 60-80%

SMILES: COc1c(CC=C(C)C)cc([C@@H]2CC(=O)c3ccc(O)cc3O2)cc1CC=C(C)C [(S)-21d]
- inhibited cell growth, relative to control (PC3-M cells): > 70%
